# Some entries share one result that the patent states for a list of compounds. Some compounds share one range, which may span the group rather than tell each member.
# Tests used:
# GABAA receptors (α5β2γ2) = target: T1, GABAA receptors (α5β2γ2) (Homo sapiens, UniProt P18507+P31644); test: Positive allosteric modulator activity: potentiation of EC20 GABA current in oocytes; type: cell-based; conditions: @ 100 nM
# T1 construct: expressed in transfected cells
# T1 sequence (P31644 32-462): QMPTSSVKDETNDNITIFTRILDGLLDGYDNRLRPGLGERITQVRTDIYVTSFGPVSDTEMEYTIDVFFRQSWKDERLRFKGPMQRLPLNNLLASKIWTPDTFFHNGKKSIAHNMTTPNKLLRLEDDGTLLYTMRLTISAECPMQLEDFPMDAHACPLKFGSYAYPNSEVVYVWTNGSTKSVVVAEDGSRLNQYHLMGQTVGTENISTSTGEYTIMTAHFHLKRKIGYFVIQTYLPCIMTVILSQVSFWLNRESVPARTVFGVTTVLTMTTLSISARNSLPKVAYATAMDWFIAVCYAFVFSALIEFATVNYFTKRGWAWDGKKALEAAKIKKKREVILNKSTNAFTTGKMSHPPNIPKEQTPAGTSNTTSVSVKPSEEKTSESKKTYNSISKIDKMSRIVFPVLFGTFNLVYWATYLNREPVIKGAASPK
# T1 sequence (P47870 25-512 partner limits assumed): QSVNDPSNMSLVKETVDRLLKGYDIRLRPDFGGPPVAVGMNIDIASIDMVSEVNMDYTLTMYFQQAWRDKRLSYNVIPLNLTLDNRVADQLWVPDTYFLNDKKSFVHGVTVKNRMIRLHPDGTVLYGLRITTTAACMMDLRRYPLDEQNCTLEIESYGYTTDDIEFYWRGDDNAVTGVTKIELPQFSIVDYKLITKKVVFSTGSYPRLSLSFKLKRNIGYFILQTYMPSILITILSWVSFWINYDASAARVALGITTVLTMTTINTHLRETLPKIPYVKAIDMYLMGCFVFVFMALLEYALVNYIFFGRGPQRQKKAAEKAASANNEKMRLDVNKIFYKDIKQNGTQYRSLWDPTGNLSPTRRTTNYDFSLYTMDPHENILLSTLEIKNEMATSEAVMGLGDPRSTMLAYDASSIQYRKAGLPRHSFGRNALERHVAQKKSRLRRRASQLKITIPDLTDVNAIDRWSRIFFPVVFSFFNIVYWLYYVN
# T1 sequence (P18507 40-467 limits assumed): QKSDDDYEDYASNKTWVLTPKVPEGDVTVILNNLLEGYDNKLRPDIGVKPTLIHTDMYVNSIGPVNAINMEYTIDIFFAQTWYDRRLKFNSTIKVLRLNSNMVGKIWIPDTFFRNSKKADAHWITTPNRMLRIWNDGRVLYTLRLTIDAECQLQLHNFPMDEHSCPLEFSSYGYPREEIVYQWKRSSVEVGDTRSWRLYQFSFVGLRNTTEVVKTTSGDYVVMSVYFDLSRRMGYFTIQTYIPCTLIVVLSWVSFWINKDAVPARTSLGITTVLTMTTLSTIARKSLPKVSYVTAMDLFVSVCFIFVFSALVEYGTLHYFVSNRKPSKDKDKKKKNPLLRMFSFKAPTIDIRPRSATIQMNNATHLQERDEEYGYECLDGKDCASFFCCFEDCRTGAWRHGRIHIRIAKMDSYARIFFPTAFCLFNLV
# Description: On day 1, 1 ng/32 nL of GABAA α5β2γ2 cDNA was injected into one oocyte. Test starts on day 2. The cDNA injected to the oocytes was a mix of alpha, beta and gamma, their ratio is 1:1:10 (by weight) and the total weight of the mixed 3 subunits to be injected in one oocyte was 1 ng in 32 nl volume. The injected oocytes can also be tested on day 3. In such case, the cDNA amount injected to the oocytes should be reduced by 20%.
# 1). 8 oocytes were placed in 8 chambers of OpusXpress and superfused with Modified Barth's Saline (MBS) at 3 mL/min. Glass electrodes back-filled with 3M KCl (0.5-3 megaohms) were used. […] 2). […] 3).
# 1). New oocytes were used to run new test. 2). […] 3). […] Oocytes were washed with MBS for 5-10 min. 4). […] Itest was divided by IGABA to obtain potentiation (%).
# 1). Repeat the above steps 1), 2) and 3) in the control test. 2). […] Divide Itest by IGABA to obtain potentiation (%). 3). Discard all tested oocytes, new oocytes were used and the above steps 1) and 2) were repeated to test second concentration of the same compound. Each oocyte was used for only one concentration test for a single test compound. The steps were repeated for other test compounds.
# [1] = tested on: GABA α5 versus GABA α1, GABA α2, or GABA α3; test: Binding selectivity from [3H]Ro15-1788 binding on GABAAR subtypes
# Description: Tissue culture and Membrane Preparation: The binding was performed on Ltk cells stably expressing GABAA receptors: α1β1γ2, α2β3γ2, α3β3γ2 and α5β3γ2 (provided by Merck Co., NJ, USA). Cells were seeded in 100 mm culture plates in DMEM/F12 medium containing 10% serum and antibiotics in 5% CO2 and allowed to grow for 1-2 days. GABAAR expression was then induced by dexamethasone as follows: 0.5 μM for 1 day for α5 containing and 2 μM for 3 days for α1, α2 and α3 containing GABAARs. After induction, cells were collected by scraping into Dulbecco's Phosphate buffered saline (DPBS, pH 7.4, Invitrogen, Carlsbad, Calif., USA) and centrifuged at 150×g for 10 min. The pellet was washed twice by re-suspension and centrifugation. The cell pellets from at least 5 different preps were combined, suspended in the binding assay buffer (50 mM KH2PO4; 1 mM EDTA; 0.2 M KCl, pH 7.4) and membranes prepared by sonication (3-5 times, 30 sec) using Branson Sonifier 150 (G. Heinmann, Germany). Protein content was determined using BCA assay (Bio-Rad Labs, Reinach, Switzerland) with Bovine Serum Albumin (Sigma Aldrich, St. Louis, Mo., USA) as the standard. Aliquots were prepared and stored at −20° C. for further use in binding assays.
# Ligand Binding: Saturation binding curves were obtained by incubating membranes with increasing concentrations (0.01-8 nM) of [^3H]Rol5-1788 (Flumazepil, 75-85 Ci/mmol, PerkinElmer, MA, USA), with nonspecific binding measured in the presence of 10 μM diazepam.
# All binding assays were performed for 1 h at 4° C. in assay buffer. The total assay volume was 0.5 ml containing 0.2 mg/ml protein for α5 and 0.4 mg/ml for α1, α2, and α3 containing GABAAR membranes. Incubations were terminated by filtration through GF/B filters using a 24-Cell Harvestor (Brandel, Gaithersburg, Md., USA) followed by 3 washes with ice-cold assay buffer. Filters were transferred to scintillation vials, 5 ml scintillation liquid added, vortex-mixed and kept in dark. Next day, radioactivity was obtained using a scintillation counter (Beckman Coulter, Brea, Calif., USA). All assays were performed in triplicate.
# Data Analyses: Saturation and inhibition curves were obtained using GraphPad Prism software (GraphPad Software, Inc., CA, USA).
Structure (SMILES),GABA α5 functional potentiation (GABAA receptors (α5β2γ2)),"Binding selectivity for GABA α5 versus GABA α1, GABA α2, or GABA α3 [1]"
COCc1nnc2n1Cc1c(C#Cc3cnc(OC)c(C(F)(F)F)c3)ncn1-c1ccc(OC)cc1-2 [Compound 731],5-20% @ 100 nM,–
COc1ccc2c(c1)-n1nncc1Cc1c(C#Cc3cnc(OC)c(F)c3)ncn1-2 [Compound 732],5-20% @ 100 nM,–
COc1ncc(C#Cc2ncn3c2Cc2cnnn2-c2cc(Cl)ccc2-3)cc1F [Compound 734],5-20% @ 100 nM,15- to 50-fold
COc1ccc2c(c1)-n1nncc1Cc1c(C#Cc3cn(C)nc3OC)ncn1-2 [Compound 735],5-20% @ 100 nM,15- to 50-fold
COCc1nnn2c1Cc1c(C#Cc3cn(C)nc3OC)ncn1-c1ccc(Cl)cc1-2 [Compound 738],5-20% @ 100 nM,15- to 50-fold
COCc1nnn2c1Cc1c(C#Cc3cnc(C)[nH]3)ncn1-c1ccc(Cl)cc1-2 [Compound 739],–,15- to 50-fold
COCc1nnn2c1Cc1c(C#Cc3cnc(C)n3C)ncn1-c1ccc(Cl)cc1-2 [Compound 740],–,15- to 50-fold
